No constants are given. Whether binding was seen depends on the method and setting. In cells and extracts the contact can be indirect. Some entries that bind do so weakly or less than the wild type.
These molecules were tested against Zbtb7b (mouse (endogenous in bone marrow cells)) (UniProt Q64321) (assay: co-IP).

By UniProt entry, the sequences of proteins in these tests, tags left out. Where a name states a change or a piece, a line headed by the entry shows the natural chain unless it says otherwise.
UniProt Q64321, whole entry: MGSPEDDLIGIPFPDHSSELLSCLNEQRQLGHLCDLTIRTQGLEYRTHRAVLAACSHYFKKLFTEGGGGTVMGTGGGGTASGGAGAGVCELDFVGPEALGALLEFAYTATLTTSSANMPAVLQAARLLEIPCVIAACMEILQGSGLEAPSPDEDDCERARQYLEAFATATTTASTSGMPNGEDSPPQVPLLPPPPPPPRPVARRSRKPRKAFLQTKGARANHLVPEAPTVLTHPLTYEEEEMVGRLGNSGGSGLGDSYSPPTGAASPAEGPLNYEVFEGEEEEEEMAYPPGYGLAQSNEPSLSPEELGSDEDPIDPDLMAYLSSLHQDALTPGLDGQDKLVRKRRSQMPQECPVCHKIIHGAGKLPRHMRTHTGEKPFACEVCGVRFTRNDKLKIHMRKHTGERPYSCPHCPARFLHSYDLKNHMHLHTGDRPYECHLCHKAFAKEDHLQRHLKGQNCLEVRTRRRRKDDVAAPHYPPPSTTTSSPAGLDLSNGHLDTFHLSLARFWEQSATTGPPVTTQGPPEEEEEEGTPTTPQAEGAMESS
UniProt P28033, whole entry: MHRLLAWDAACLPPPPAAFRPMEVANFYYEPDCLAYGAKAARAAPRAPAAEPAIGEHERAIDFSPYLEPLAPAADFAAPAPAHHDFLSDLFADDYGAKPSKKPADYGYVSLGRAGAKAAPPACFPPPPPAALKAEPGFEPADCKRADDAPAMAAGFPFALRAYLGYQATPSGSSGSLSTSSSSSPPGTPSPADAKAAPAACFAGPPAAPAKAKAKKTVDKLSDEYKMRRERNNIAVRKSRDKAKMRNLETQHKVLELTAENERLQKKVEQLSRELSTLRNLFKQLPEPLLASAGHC
UniProt P53566, whole entry: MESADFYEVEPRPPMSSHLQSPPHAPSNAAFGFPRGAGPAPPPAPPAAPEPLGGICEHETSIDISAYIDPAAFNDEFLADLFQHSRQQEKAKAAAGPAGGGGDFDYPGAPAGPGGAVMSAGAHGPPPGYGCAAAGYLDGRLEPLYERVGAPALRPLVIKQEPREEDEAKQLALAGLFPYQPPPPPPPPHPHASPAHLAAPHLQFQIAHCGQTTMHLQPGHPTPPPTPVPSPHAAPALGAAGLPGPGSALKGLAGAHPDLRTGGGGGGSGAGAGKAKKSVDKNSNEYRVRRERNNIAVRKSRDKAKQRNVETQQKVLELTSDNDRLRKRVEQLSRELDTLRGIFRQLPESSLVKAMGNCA

Molecule | binding
Cebpβ (from UniProt P28033 1-296) | binds
Cebpα (from UniProt P53566 1-359) | no binding
Cebpδ (protein, UniProt Q00322 1-268) MSAALFSLDSPVRGTPWPTEPAAFYEPGRVDKPGRGPEPGDLGELGSTTPAMYDDESAIDFSAYIDSMAAVPTLELCHDELFADLFNSNHKAAGAGGLELLQGGPTRPPGVGSVARGPLKREPDWGDGDAPGSLLPAQVAVCAQTVVSLAAAAQPTPPTSPEPPRGSPGPSLAPGTVREKGAGKRGPDRGSPEYRQRRERNNIAVRKSRDKAKRRNQEMQQKLVELSAENEKLHQRVEQLTRDLAGLRQFFKKLPSPPFLPPTGADCR | binds
Cebpε (protein, UniProt Q6PZD9 1-281) MSHGTYYECEPRGGQQPLEFSGGRAGPGELGDMCEHEASIDLSAYIESGEEQLLSDLFAMKPTPEARSLKGPGAPSFPHYLPADPRPFAYPSHTFGPDRKALGPGIYSNPGSYDPRAVAVKEEPRGPEGNRGTSRGSYNPLQYQVAHCGQTAVHLPPTLAAPGQPLRVLKAPVAAAAPPCSPLLKAPSPAGPSHKGKKAVNKDSLEYRLRRERNNIAVRKSRDKAKRRIMETQQKVLEYMAENERLRNRVDQLTQELDTLRNLFRQIPEAASLIKGVGGCS | binds
Xbp1 (protein, UniProt O35426 1-267) MVVVAAAPSAATAAPKVLLLSGQPASGGRALPLMVPGPRAAGSEASGTPQARKRQRLTHLSPEEKALRRKLKNRVAAQTARDRKKARMSELEQQVVDLEEENHKLQLENQLLREKTHGLVVENQELRTRLGMDTLDPDEVPEVEAKGSGVRLVAGSAESAALRLCAPLQQVQAQLSPPQNIFPWTLTLLPLQILSLISFWAFWTSWTLSCFSNVLPQSLLVWRNSQRSTQKDLVPYQPPFLCQWGPHQPSWKPLMNSFVLTMYTPSL | no binding

Target: Zbtb7b (mouse (endogenous in bone marrow cells)) (UniProt Q64321)
Experiment: co-IP
Remark: another data set of the same source

Molecule | binding
Cebpβ (from UniProt P28033 1-296) | binds
